# The list shows a part of the results.
# Target: T1, OsSMF1 (Oryza sativa, UniProt Q6ZLB0 1-436)
# T1 sequence: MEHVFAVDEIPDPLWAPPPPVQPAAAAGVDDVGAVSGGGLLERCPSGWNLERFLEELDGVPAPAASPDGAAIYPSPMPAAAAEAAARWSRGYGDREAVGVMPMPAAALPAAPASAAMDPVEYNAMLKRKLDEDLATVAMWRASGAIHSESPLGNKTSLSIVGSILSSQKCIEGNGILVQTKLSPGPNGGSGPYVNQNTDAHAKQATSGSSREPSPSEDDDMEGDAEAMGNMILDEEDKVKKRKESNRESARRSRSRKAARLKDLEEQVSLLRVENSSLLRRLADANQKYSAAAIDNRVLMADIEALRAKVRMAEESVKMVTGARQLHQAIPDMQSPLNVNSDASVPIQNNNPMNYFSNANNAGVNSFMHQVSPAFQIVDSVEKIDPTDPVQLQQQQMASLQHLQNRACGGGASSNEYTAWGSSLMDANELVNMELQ
# Assay: protein-binding microarray (RPBM); PBS, 2% BSA, 51.3 ng/ul salmon testes DNA, 50 uM zinc acetate, 200 nM TF, 25 C, 1 h; high values mean tight binding
# Conditions: protein: recombinant; tags: N-terminal polyhistidine and DsRed monomer fusion (pET32a); chain copies: 2; label: CyDye5-dUTP incorporated in the synthesized complementary strand; 3' TTTTT single-stranded linker to array surface; dsDNA, one strand shown
# How it was run: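 Using Ni–NTA, transcription factors fused N-terminally to polyhistidine and DsRed were purified after expression in E. coli BL21-CodonPlus. These were incubated at 200 nM with a blocked, double-stranded custom Agilent array for 1 h at 25 °C in a buffer containing 50 µM zinc acetate, and the array was washed. The binding signal is per-feature fluorescence intensity (arbitrary units) on an Axon 4000B scanner.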
row,Sequence,binding signal
1,CGGACACGGCCTCGTCAGGGTTCTTGCTAGTTCTTGTAGTCGGAGTCACCTAGTGCAG,3150 fluorescence intensity (a.u.)
2,ACTGGGCCGATGCGGAGCCAACGCCGACGCAGCCGCCAGCCGGAGTCACCTAGTGCAG,3170 fluorescence intensity (a.u.)
3,AAGAGAAAATTTGTTTACTGACCATGACTCCTCTCTCTGACGGAGTCACCTAGTGCAG,3420 fluorescence intensity (a.u.)
4,ACATCATTTACCTGTACAAAACATCTCAATTATGCATTGTCGGAGTCACCTAGTGCAG,3520 fluorescence intensity (a.u.)
5,CGAAGCGAGGGGCGAGCACGTCGACGAGCTTCCCCTTCCCCGGAGTCACCTAGTGCAG,4140 fluorescence intensity (a.u.)
6,CGCTTTTGTGTTTAGTTTAGCGGTGACGTCTTGCGTTTGGCGGAGTCACCTAGTGCAG,5950 fluorescence intensity (a.u.)
7,GCTGCGGCTGCTGTTGCTGCTTGGACTCCACCTCGGCACCCGGAGTCACCTAGTGCAG,3940 fluorescence intensity (a.u.)
8,CACATCACATACTGAATGTAAGACGTGTCTCGAGTATCCGCGGAGTCACCTAGTGCAG,3160 fluorescence intensity (a.u.)
9,CAGGAGGCAGGGGTGATCTTTCAGCGGTTAAATCGGGTGACGGAGTCACCTAGTGCAG,5240 fluorescence intensity (a.u.)
10,TGACTCTGAGCTGCATGATTTACACGCACACGCGGAGGCTCGGAGTCACCTAGTGCAG,4110 fluorescence intensity (a.u.)
11,AACAATTATCCACAAATGGACAGACATCATCATCGGTCACCGGAGTCACCTAGTGCAG,3470 fluorescence intensity (a.u.)
12,GAAACAACTCCAGCATTCCATAATCATGACACATGTTTTCCGGAGTCACCTAGTGCAG,3380 fluorescence intensity (a.u.)
13,GTTAATAATCCACGTTTTCCGATGCATCCATGACTCATTCCGGAGTCACCTAGTGCAG,7190 fluorescence intensity (a.u.)
14,CACTGCCCATTCGCCACGTCCCCTAACGCTCCAGGTTTATCGGAGTCACCTAGTGCAG,11800 fluorescence intensity (a.u.)
15,CAGCCACACGGCGACACGACACGTACGTTGCAAGCGAGTGCGGAGTCACCTAGTGCAG,3370 fluorescence intensity (a.u.)
16,GAACTGTCCACGTTACCAGCCCGCATTGAATAACGCTTTGCGGAGTCACCTAGTGCAG,4200 fluorescence intensity (a.u.)
17,AATAATTAATTAATCATAGCTTGCAACTGCATATGTAGGGCGGAGTCACCTAGTGCAG,3790 fluorescence intensity (a.u.)
18,TTTCACGAGAGCTTTCCCTTTAAATACATCGCTCGGCTCCCGGAGTCACCTAGTGCAG,24500 fluorescence intensity (a.u.)
19,ACGACCTGCACGTCGCCCTGCTTCATTGCATCTAATGACGCGGAGTCACCTAGTGCAG,3820 fluorescence intensity (a.u.)
20,GGAACACTTGTCACATCATTAAGGTTGATGGTTAGCCCGACGGAGTCACCTAGTGCAG,3230 fluorescence intensity (a.u.)
21,CAGAGCGCGCGTGCGCCGCTGCCGCGTCACGCGCCAATCGCGGAGTCACCTAGTGCAG,9720 fluorescence intensity (a.u.)

row,Sequence,binding signal
1,CTCACTGGTATGCTCACCACCACTTTAAGACTGTGTTTGTCGGAGTCACCTAGTGCAG,3730 fluorescence intensity (a.u.)
2,AATATTGTGCACACACGATACTTCATAGGAATCTAGTGACCGGAGTCACCTAGTGCAG,3360 fluorescence intensity (a.u.)
3,GAGACGCGACGCCGCCCGATGGGTGACTGCCACGTGGCAGCGGAGTCACCTAGTGCAG,19100 fluorescence intensity (a.u.)
4,CGCCGCCGCAGCCTCCTATCCTCCCTAGTCCATCACCGCGCGGAGTCACCTAGTGCAG,3210 fluorescence intensity (a.u.)
5,CACTCACACACACACACAATACAACAAGCCTACAACTCATCGGAGTCACCTAGTGCAG,3330 fluorescence intensity (a.u.)
6,GGCAGTCAAACCAACTCTCATACGAGCTCCTGGCGGTTGTCGGAGTCACCTAGTGCAG,3340 fluorescence intensity (a.u.)
7,GACGCTGTTGTCAGTCTTGATGACATCAGGTACGATGGTTCGGAGTCACCTAGTGCAG,5820 fluorescence intensity (a.u.)
8,TCGGGCCGGGCGGCCCATTTTGCCAGCTCTCCCCAAACCCCGGAGTCACCTAGTGCAG,3460 fluorescence intensity (a.u.)
9,TCACGATTAATTATATCATCATTTTGTATCCTTTGATTTCCGGAGTCACCTAGTGCAG,3480 fluorescence intensity (a.u.)
10,TTTAAAATTTAATATCACTAATTATAGTTACAATCTCATCCGGAGTCACCTAGTGCAG,23300 fluorescence intensity (a.u.)
11,GTGGCTTCCTCCGCGGAGCACGAGTAGCTTGGCCCCTACCCGGAGTCACCTAGTGCAG,3160 fluorescence intensity (a.u.)
12,AGAGCGGGTGGGAGGCGAAGTAGACAGGGGCGGGGCGCATCGGAGTCACCTAGTGCAG,3970 fluorescence intensity (a.u.)
13,CTCGGATTATCCGAGTCGGATAGCATATTAGCATCCTGTACGGAGTCACCTAGTGCAG,4220 fluorescence intensity (a.u.)
14,CACTGGGCGCGTGCAGCGGCGATTCGACCATCTGTTCCACCGGAGTCACCTAGTGCAG,3200 fluorescence intensity (a.u.)
15,AGAAAGCGAAAGCAATCCACGTCACCGGCGGCGAGCCGTCCGGAGTCACCTAGTGCAG,7760 fluorescence intensity (a.u.)
16,CTCGAAGACGATATGGCGTGTGATTTTCCACAGTTTATTCCGGAGTCACCTAGTGCAG,3250 fluorescence intensity (a.u.)
17,CCAACCTTTCATTATGCTCGACCAACGTGGCGAACACGTGCGGAGTCACCTAGTGCAG,3970 fluorescence intensity (a.u.)
18,TCCCGCATGTGTTGTGTGATGTGTCTCGTCTCCGCCACCACGGAGTCACCTAGTGCAG,7960 fluorescence intensity (a.u.)
19,GTTACCTGCTAGTGACCATTGGTGACTAACTCGCCAAACACGGAGTCACCTAGTGCAG,4220 fluorescence intensity (a.u.)
20,GCAATAGCCAAGAACTGAGCCAAAGAACAGCCAAGCCCATCGGAGTCACCTAGTGCAG,3600 fluorescence intensity (a.u.)
21,CATCATGTCACGTGTCAATGTGTCAAGCGTCCGTCTGCTACGGAGTCACCTAGTGCAG,10900 fluorescence intensity (a.u.)

# A second format for part of the listing above.
row	Sequence	binding signal
8	CACATCACATACTGAATGTAAGACGTGTCTCGAGTATCCGCGGAGTCACCTAGTGCAG	3160 fluorescence intensity (a.u.)
4	CGCCGCCGCAGCCTCCTATCCTCCCTAGTCCATCACCGCGCGGAGTCACCTAGTGCAG	3210 fluorescence intensity (a.u.)
